# Experimental data as given in the supplement of paper PMC12067093, “Discovery and optimisation of a covalent ligand for TRIM25 and its application to targeted protein ubiquitination” (Chemical Science, 2025).
# The other results are listed elsewhere or left out.
# Target: T1, TRMT12_Q53H54_444_SYAPHVDHIVLDLECCPCPSVG (UniProt Q53H54)
# T1 sequence (whole entry): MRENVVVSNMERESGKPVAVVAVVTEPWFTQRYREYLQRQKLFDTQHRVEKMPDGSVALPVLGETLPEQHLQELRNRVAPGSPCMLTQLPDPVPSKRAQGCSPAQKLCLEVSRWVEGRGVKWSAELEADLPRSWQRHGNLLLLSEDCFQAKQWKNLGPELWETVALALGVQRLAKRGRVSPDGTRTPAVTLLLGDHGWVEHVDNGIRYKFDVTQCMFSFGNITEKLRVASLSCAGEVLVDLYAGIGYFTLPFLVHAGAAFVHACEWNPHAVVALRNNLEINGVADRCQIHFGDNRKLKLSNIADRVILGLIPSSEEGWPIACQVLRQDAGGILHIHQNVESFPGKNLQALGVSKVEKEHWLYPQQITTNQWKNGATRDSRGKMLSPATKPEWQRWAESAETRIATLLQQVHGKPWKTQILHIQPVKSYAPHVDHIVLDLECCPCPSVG
# Assay: probe-labelled cysteine peptide fold change vs DMSO (competition) (log2 fold change); higher = less target engagement (more negative = stronger competition)
# Conditions: THP-1, incubation time: 4 h
# 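Further: competitive profiling in live THP-1 cells: cysteine peptides tagged with an iodoacetamide desthiobiotin (IA-DTB) probe, intensity after compound treatment relative to DMSO-treated cells.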
compound,measurement,setting,value
Cc1cc(C(=O)N2CCCN(C(=O)CCl)CC2)ccc1-c1ccccc1 [compound 10],probe-labelled cysteine peptide fold change,10 µM,0.0896
same,probe-labelled cysteine peptide fold change,50 µM,0.123
